According to patent publication US20240352468:

Tested on: NF-kB (recombinant)
Assay: EMSA
Conditions: PS bonds from first to ninth base from 5' end of SEQ:8; 50 ng/uL NF-kB; 0.1 uM hairpins, 10 nM miR-21, TE buffer, room temperature for HCR; free HCR product bands hardly detected; purified recombinant protein; protein details: Cayman Chemical; label: FAM-dT at nucleotide 21 of SEQ:8

TCAACATCAGTCTGATAAGCTAGGGACTTTCCTAGCTTATCAGACT / TAGCTTATCAGACTGATGTTGAAGTCTGATAAGCTAGGAAAGTCCC / UAGCUUAUCAGACUGAUGUUGA [HCR product of FAM-HP1(16) and HP2(16) initiated by miR-21]
binding result: binds

Construct, isoform or probe ends are uncertain for at least one entry.
